For one molecule, binding results are on record in publication PMC7876245.

By UniProt entry, the sequences of proteins in these tests, tags left out.
UniProt Q8K1M6: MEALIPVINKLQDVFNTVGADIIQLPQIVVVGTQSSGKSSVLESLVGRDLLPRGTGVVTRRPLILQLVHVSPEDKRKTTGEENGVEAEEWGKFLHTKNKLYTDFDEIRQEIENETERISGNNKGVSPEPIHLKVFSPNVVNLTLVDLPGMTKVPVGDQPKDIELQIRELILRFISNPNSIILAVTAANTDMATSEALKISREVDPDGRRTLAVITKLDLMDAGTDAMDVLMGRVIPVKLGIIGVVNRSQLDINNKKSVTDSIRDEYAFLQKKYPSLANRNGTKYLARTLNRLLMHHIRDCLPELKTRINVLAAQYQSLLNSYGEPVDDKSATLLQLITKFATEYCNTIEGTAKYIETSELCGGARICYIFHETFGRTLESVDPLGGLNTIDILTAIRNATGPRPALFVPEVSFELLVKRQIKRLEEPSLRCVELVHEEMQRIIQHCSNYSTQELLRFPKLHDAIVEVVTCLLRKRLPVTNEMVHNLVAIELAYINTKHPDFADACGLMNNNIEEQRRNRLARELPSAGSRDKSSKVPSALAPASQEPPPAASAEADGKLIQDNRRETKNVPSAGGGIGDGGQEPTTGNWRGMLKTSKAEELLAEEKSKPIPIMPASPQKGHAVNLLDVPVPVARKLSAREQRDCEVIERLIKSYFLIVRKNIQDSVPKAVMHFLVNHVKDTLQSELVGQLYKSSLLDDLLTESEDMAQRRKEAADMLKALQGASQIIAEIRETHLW

Results are given in words; binding and its absence hold for the method and conditions named. Binding seen in cells or lysates may run through a third protein. Some binding calls cover weakened binding; strength is not graded here.

This assay concerns the target dynamin-related protein 1 (mouse (endogenous in primary astrocytes)) (UniProt Q8K1M6). Nature of the assay: co-IP; lysates of primary astrocytes (WT and kir6.2-/- mice, treated with CON-MCM or LPS-MCM for 24 h) incubated overnight with anti-Drp1 or anti-Fis1 antibody (or mouse/rabbit IgG), then protein A/G-agarose beads 4 h at 4°C; western blot for Drp1 and Fis1; both orientations (IP Drp1, blot Fis1; IP Fis1, blot Drp1).

B1: mitochondrial fission 1 (protein, UniProt Q9CQ92 1-152)
chain: MEAVLNELVSVEDLKNFERKFQSEQAAGSVSKSTQFEYAWCLVRSKYNEDIRRGIVLLEELLPKGSKEEQRDYVFYLAVGNYRLKEYEKALKYVRGLLQTEPQNNQAKELERLIDKAMKKDGLVGMAIVGGMALGVAGLAGLIGLAVSKSKS
For the molecule B1, the binding entry is “binds”.
